Amino acid sequences for entries named in this document (tags omitted). A change or cut given only in a name is not applied to a line headed by its entry.
UniProt P02647: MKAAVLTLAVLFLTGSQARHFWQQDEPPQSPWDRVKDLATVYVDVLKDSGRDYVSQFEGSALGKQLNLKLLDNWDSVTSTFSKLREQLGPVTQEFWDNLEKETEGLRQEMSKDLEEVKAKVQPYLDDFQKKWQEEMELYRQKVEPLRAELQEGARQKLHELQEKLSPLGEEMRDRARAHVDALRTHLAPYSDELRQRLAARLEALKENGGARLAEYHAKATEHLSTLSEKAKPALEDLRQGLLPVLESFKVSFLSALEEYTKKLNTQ
UniProt O95445: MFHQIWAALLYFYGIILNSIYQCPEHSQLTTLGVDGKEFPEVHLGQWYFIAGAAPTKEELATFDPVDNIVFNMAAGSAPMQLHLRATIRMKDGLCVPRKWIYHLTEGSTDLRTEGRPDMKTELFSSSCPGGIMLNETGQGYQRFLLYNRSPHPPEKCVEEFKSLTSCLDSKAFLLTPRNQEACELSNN

According to article PMC8579991:

Biological target: apolipoprotein A1 (apoA1) (human (endogenous in plasma)) (UniProt P02647)
Assay: affinity purification with mass spectrometry; anti-apoA1 immunoprecipitation from human plasma; apolipoproteins of the bound fraction by MS; isotype control

binding | Molecule
binds | apolipoprotein M (apoM) (from UniProt O95445 1-188)
binds | apolipoprotein A4 (apoA4) (protein, UniProt P06727 21-396) EVSADQVATVMWDYFSQLSNNAKEAVEHLQKSELTQQLNALFQDKLGEVNTYAGDLQKKLVPFATELHERLAKDSEKLKEEIGKELEELRARLLPHANEVSQKIGDNLRELQQRLEPYADQLRTQVSTQAEQLRRQLTPYAQRMERVLRENADSLQASLRPHADELKAKIDQNVEELKGRLTPYADEFKVKIDQTVEELRRSLAPYAQDTQEKLNHQLEGLTFQMKKNAEELKARISASAEELRQRLAPLAEDVRGNLRGNTEGLQKSLAELGGHLDQQVEEFRRRVEPYGENFNKALVQQMEQLRQKLGPHAGDVEGHLSFLEKDLRDKVNSFFSTFKEKESQDKTLSLPELEQQQEQQQEQQQEQVQMLAPLES

These are yes or no findings as the source states them, for the method shown. In cells and extracts the contact can be indirect. A yes stands for co-enrichment or nearness to the bait. Other partners may have been found.
